According to the supplement of paper PMC10849652:
The list shows a part of the results.

Chains of the proteins cited; added tags and fusions are not shown. Lines headed by an entry give the natural chain unless they say otherwise; changes in a name come on top.
UniProt Q9NVG8: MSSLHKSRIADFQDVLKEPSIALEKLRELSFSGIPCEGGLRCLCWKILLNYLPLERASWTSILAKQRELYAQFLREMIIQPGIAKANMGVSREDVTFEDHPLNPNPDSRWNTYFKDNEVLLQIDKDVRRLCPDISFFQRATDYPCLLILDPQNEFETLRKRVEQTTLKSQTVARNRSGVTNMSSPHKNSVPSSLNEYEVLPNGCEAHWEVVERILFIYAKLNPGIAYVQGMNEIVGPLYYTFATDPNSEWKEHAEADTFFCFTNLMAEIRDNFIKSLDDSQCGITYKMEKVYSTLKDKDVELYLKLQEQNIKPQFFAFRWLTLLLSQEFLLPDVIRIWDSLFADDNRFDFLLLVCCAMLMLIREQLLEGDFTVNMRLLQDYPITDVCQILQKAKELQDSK
UniProt Q9Y6I9: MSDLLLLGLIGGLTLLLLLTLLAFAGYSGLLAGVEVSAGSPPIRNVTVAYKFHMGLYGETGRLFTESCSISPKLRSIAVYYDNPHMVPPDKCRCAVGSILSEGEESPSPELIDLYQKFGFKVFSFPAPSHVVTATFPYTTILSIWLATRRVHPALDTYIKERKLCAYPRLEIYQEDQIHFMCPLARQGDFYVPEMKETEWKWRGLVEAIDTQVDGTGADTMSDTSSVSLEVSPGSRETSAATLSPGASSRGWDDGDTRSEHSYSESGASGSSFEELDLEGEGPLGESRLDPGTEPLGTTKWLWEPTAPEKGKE
UniProt Q9C0B7: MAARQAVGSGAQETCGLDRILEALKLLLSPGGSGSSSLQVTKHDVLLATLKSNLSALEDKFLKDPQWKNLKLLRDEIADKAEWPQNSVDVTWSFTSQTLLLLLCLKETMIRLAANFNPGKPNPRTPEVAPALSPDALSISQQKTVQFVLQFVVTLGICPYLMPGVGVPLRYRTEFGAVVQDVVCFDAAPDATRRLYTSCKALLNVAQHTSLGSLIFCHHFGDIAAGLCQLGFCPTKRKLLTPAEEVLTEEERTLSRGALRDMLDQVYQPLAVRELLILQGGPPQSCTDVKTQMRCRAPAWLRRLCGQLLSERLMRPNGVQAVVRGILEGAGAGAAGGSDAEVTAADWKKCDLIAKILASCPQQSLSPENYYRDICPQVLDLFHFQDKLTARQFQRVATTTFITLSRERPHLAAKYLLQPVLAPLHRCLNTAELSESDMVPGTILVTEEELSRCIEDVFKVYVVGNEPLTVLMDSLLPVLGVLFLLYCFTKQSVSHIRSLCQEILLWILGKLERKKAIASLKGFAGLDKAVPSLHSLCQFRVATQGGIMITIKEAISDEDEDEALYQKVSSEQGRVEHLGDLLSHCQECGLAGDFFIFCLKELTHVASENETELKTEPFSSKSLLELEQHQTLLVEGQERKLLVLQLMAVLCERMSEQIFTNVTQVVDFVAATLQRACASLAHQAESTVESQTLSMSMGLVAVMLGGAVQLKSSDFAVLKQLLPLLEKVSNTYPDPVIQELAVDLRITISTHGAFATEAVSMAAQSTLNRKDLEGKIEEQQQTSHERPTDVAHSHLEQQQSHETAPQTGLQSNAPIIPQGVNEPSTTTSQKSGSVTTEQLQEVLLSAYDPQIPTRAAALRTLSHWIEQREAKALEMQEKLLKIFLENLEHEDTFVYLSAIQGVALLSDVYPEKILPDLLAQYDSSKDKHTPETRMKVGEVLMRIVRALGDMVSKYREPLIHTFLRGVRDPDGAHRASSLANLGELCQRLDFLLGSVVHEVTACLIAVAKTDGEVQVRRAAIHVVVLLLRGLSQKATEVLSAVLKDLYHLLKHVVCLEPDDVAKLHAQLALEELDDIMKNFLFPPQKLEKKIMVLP
UniProt Q92844: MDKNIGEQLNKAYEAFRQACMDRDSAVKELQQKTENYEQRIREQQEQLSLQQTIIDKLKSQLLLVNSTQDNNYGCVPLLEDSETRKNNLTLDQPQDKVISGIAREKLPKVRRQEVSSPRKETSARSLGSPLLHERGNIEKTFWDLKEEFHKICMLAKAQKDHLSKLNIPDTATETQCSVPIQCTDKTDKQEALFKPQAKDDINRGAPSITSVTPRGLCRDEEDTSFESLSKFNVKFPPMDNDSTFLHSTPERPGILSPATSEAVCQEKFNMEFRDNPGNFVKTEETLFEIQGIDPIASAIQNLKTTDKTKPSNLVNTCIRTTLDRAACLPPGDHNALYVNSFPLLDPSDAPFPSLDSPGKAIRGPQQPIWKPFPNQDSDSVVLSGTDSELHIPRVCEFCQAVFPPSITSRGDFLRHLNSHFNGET
UniProt Q7L7X3: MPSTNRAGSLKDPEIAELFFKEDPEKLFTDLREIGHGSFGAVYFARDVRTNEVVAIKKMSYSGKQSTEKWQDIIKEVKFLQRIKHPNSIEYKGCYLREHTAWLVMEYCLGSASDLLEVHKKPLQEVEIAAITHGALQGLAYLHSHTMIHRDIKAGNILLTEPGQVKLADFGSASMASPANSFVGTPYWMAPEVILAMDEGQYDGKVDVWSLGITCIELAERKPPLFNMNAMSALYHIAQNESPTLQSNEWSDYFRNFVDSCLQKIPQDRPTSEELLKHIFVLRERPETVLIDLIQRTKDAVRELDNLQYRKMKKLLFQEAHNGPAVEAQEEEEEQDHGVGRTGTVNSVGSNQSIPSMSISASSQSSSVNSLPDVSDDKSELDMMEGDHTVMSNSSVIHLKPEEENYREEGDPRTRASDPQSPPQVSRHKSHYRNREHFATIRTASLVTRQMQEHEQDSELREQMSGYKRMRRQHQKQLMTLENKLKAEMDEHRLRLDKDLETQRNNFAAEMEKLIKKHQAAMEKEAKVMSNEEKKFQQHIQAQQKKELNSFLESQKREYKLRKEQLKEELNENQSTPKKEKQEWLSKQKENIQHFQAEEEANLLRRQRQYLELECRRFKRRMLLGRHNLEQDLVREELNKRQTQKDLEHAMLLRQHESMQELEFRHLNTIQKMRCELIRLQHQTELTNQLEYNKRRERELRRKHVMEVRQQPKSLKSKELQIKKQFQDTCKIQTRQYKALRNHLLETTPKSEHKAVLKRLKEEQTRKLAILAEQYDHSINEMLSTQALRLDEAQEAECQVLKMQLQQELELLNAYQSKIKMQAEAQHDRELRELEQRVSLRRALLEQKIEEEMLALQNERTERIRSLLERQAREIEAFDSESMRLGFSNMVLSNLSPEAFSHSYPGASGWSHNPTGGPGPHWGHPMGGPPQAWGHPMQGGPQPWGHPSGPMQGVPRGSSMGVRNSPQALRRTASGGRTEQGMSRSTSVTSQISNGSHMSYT
UniProt P20226, whole entry, looked up: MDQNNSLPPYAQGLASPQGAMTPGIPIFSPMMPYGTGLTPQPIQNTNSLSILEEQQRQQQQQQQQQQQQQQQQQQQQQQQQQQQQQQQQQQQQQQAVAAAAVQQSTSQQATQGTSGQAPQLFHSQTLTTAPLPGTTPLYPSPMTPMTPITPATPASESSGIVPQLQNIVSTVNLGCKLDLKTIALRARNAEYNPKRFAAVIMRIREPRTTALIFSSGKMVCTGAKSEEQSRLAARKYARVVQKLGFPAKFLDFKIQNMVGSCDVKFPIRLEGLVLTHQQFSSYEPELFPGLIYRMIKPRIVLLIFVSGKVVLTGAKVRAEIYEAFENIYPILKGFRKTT
UniProt Q15554: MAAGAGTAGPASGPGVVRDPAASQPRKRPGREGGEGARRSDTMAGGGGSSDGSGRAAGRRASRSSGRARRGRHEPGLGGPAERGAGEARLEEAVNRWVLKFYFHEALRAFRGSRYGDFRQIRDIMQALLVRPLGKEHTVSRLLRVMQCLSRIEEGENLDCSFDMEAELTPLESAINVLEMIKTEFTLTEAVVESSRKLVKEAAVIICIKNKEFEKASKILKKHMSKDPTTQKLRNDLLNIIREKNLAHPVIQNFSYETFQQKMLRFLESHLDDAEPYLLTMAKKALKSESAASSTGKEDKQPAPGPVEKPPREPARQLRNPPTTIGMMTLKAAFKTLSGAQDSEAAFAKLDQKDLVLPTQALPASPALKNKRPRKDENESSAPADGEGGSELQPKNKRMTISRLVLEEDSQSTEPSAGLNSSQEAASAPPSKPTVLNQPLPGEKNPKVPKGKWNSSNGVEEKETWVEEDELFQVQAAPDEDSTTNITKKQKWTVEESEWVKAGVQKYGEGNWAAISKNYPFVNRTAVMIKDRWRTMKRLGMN
UniProt Q96EI5: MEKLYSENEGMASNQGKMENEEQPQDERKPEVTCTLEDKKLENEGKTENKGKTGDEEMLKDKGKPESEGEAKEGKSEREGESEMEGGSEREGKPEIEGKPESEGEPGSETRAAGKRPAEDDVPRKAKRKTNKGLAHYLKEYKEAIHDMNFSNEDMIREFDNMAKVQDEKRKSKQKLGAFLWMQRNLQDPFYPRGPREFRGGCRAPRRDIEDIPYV
UniProt Q9BXI6: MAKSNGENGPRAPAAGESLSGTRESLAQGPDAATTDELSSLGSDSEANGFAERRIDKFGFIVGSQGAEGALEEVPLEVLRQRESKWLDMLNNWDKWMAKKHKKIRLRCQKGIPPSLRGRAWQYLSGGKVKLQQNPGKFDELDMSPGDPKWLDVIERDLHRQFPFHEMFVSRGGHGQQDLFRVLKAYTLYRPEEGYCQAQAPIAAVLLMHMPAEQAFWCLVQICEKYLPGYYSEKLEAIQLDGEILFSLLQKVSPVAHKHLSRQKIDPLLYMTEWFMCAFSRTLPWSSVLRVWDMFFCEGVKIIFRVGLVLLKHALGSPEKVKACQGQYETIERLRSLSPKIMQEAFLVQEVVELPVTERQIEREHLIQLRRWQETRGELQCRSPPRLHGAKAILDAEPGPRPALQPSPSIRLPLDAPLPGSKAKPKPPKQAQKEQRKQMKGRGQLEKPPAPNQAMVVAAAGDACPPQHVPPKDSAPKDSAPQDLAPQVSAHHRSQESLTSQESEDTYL
UniProt Q14186: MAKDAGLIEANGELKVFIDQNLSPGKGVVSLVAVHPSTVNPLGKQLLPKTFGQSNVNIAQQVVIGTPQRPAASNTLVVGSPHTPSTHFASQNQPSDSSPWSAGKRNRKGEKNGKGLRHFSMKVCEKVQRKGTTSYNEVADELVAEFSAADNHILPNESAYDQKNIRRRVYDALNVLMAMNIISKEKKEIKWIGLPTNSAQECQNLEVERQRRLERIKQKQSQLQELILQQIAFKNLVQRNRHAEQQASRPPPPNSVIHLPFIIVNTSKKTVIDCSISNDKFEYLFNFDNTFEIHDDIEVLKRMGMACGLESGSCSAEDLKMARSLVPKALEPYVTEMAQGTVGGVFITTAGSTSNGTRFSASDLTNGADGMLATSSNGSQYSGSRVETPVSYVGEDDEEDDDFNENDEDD
UniProt Q96BS2: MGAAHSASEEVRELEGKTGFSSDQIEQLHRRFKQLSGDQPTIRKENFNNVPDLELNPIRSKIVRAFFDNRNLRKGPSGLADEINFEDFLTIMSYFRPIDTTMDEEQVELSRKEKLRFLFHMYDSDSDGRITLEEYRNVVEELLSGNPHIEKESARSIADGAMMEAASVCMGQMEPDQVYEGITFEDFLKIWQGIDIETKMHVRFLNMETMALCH
UniProt Q9NZ01: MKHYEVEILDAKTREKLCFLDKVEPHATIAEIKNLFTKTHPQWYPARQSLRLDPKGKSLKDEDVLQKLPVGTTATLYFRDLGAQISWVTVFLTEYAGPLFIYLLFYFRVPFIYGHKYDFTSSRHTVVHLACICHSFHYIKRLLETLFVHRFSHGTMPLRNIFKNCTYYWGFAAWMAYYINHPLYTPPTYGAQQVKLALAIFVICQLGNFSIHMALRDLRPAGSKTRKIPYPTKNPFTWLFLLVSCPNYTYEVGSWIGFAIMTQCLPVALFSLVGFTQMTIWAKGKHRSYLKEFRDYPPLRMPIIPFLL
UniProt Q15813: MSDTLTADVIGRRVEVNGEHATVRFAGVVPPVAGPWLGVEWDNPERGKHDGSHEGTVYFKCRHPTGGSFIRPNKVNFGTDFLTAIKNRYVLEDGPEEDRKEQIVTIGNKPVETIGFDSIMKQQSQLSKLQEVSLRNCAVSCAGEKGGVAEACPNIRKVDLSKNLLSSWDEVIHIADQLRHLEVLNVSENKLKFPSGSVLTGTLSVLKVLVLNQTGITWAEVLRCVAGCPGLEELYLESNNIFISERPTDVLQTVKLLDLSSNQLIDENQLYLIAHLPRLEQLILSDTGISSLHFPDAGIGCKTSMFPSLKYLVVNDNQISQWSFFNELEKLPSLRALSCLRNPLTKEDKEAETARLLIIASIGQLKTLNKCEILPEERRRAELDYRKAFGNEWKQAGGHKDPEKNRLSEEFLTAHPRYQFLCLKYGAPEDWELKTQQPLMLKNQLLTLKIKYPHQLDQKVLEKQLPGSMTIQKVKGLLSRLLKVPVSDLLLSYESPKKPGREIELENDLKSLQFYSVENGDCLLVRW
UniProt Q16594, whole entry, looked up: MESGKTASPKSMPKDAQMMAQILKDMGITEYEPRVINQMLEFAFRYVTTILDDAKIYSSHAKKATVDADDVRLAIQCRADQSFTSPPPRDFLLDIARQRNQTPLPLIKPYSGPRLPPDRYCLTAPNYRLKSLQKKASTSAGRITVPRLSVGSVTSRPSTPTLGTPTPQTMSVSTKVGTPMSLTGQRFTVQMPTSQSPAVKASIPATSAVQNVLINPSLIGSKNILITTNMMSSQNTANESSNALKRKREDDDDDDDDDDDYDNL

compound: C[C@@H](Oc1cc(-c2cnn(C3CCNCC3)c2)cnc1N)c1c(Cl)ccc(F)c1Cl [crizotinib]; experiment: log2 fold change, soluble protein after heating vs DMSO (PISA); higher = thermal stabilisation; K562 lysate, 10 uM; active = over 0.2 and 3.5 SD of the protein, either way, in both replicates (recomputed)
In short: (§1)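 The values are log-two fold changes in thermal stability compared with solvent controls and come from duplicates. They were obtained by TMTpro 16plex LC-MS/MS, with channel sums equalised, on the supernatant after 21,000xg for 90 min. That supernatant came from crude K562 extract at 1 mg/mL protein treated with 10 μM compound for 30 min, heated for 3 min across 48°C-58°C, pooled and brought to 0.5% NP-40 at 4°C.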

log2 fold change, inactive:
TBC1D13 (UniProt Q9NVG8) 0.027
TBC1D2 (UniProt Q9BYX2) -0.075
TEX264 (UniProt Q9Y6I9) -0.012
TANGO6 (UniProt Q9C0B7) -0.065
TAOK3 (UniProt Q9H2K8) 0.066
TANK (UniProt Q92844) 0.27
TBC1D15 isoform 3 (UniProt Q8TC07) -0.079
TEX10 (UniProt Q9NXF1) 0.024
TBC1D20 isoform 3 (UniProt Q96BZ9) -0.066
TBC1D2B (UniProt Q9UPU7) 0.041
TAF6L (UniProt Q9Y6J9) 0.035
TAOK1 (UniProt Q7L7X3) -0.06
TBP (UniProt P20226) -0.154
TARS2 (UniProt Q9BW92) -0.023
TERF2 (UniProt Q15554) -0.032
TBCK (UniProt Q8TEA7) -0.008
TCEAL4 isoform 2 (UniProt Q96EI5) -0.048
TBC1D22B (UniProt Q9NU19) -0.027
TBC1D8B (UniProt Q0IIM8) 0.013
TBC1D10A (UniProt Q9BXI6) 0.045
TFIP11 (UniProt Q9UBB9) -0.085
TFDP1 (UniProt Q14186) -0.042
TEPSIN, A0A1B0GV70 0.129
TESC (UniProt Q96BS2) 0
TECR (UniProt Q9NZ01) -0.138
TET1 (UniProt Q8NFU7) -0.316
TFRC (UniProt P02786) 0.026
TBCE (UniProt Q15813) -0.042
TAF8 isoform 2 (UniProt Q7Z7C8) -0.028
TBCC (UniProt Q15814) 0.003
TAF9 (UniProt Q16594) -0.004
TAF9B (UniProt Q9HBM6) 0.033
TBL3 (UniProt Q12788) -0.017

compound: C[C@H](C1=CC=C(C=C1)C(=O)NC2=C3C=CNC3=NC=C2)N; experiment: as above
In short: as §1

log2 fold change, inactive:
TBC1D13 (UniProt Q9NVG8) -0.076
TBC1D2 (UniProt Q9BYX2) 0.018
TEX264 (UniProt Q9Y6I9) 0.21
TANGO6 (UniProt Q9C0B7) -0.102
TAOK3 (UniProt Q9H2K8) 0.153
TANK (UniProt Q92844) 0.021
TBC1D15 isoform 3 (UniProt Q8TC07) 0.053
TEX10 (UniProt Q9NXF1) -0.053
TBC1D20 isoform 3 (UniProt Q96BZ9) -0.087
TBC1D2B (UniProt Q9UPU7) 0.007
TAF6L (UniProt Q9Y6J9) 0.037
TAOK1 (UniProt Q7L7X3) 0.055
TBP (UniProt P20226) -0.128
TARS2 (UniProt Q9BW92) -0.057
TERF2 (UniProt Q15554) 0.047
TBCK (UniProt Q8TEA7) 0.047
TCEAL4 isoform 2 (UniProt Q96EI5) 0.01
TBC1D22B (UniProt Q9NU19) 0.009
TBC1D8B (UniProt Q0IIM8) -0.229
TBC1D10A (UniProt Q9BXI6) -0.072
TFIP11 (UniProt Q9UBB9) -0.031
TFDP1 (UniProt Q14186) 0.003
TEPSIN, A0A1B0GV70 0.019
TESC (UniProt Q96BS2) -0.095
TECR (UniProt Q9NZ01) 0.011
TET1 (UniProt Q8NFU7) -0.581
TFRC (UniProt P02786) -0.015
TBCE (UniProt Q15813) -0.002
TAF8 isoform 2 (UniProt Q7Z7C8) 0.013
TBCC (UniProt Q15814) -0.03
TAF9 (UniProt Q16594) 0.188
TAF9B (UniProt Q9HBM6) 0.072
TBL3 (UniProt Q12788) -0.028

compound: C[C@H](Nc1ncnc2nc[nH]c12)c1cc2cccc(Cl)c2c(=O)n1-c1ccccc1 [duvelisib]; experiment: as above
In short: as §1

log2 fold change, inactive:
TBC1D13 (UniProt Q9NVG8) 0.023
TBC1D2 (UniProt Q9BYX2) -0.016
TEX264 (UniProt Q9Y6I9) -0.104
TANGO6 (UniProt Q9C0B7) 0.005
TAOK3 (UniProt Q9H2K8) 0.016
TANK (UniProt Q92844) -0.026
TBC1D15 isoform 3 (UniProt Q8TC07) -0.019
TEX10 (UniProt Q9NXF1) 0.022
TBC1D20 isoform 3 (UniProt Q96BZ9) 0.021
TBC1D2B (UniProt Q9UPU7) 0.027
TAF6L (UniProt Q9Y6J9) 0.024
TAOK1 (UniProt Q7L7X3) 0.001
TBP (UniProt P20226) 0.043
TARS2 (UniProt Q9BW92) -0.018
TERF2 (UniProt Q15554) 0.032
TBCK (UniProt Q8TEA7) -0.032
TCEAL4 isoform 2 (UniProt Q96EI5) 0.018
TBC1D22B (UniProt Q9NU19) 0
TBC1D8B (UniProt Q0IIM8) 0.007
TBC1D10A (UniProt Q9BXI6) 0.031
TFIP11 (UniProt Q9UBB9) -0.053
TFDP1 (UniProt Q14186) -0.03
TEPSIN, A0A1B0GV70 0.204
TESC (UniProt Q96BS2) 0.026
TECR (UniProt Q9NZ01) -0.056
TET1 (UniProt Q8NFU7) 0.131
TFRC (UniProt P02786) 0.005
TBCE (UniProt Q15813) 0.025
TAF8 isoform 2 (UniProt Q7Z7C8) 0.035
TBCC (UniProt Q15814) 0
TAF9 (UniProt Q16594) 0.084
TAF9B (UniProt Q9HBM6) -0.002
TBL3 (UniProt Q12788) -0.009
